{"source": "PubChem BioAssay AID1159578 – Peter MacCallum Cancer Centre – 2015", "purpose": "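Knock-downs that alter how fast lymphatic endothelial cells migrate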 (primary screen)", "system": "human lymphatic endothelial cells", "reagent": "siRNA pool against human genes, 40 nM", "time to read-out": "48 h after transfection", "measured": "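High-content imaging of dye-stained cells in a scratch assay measures filled wound area and nuclei per well; duplicate means given as ratio to mock and robust z-score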", "reading the numbers": "migration robust z-score: higher = faster migration into the scratch; nuclei per well: higher = more cells in the well", "call rule": "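Migration changed when robust z exceeds 2 or falls below -2 and mean nuclei number is at least 3300; otherwise not called changed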", "meaning of the calls": "active = migration changed; inactive = no migration change, or too few cells", "note": "This is a random part of about 18,000 deposited reagents. About 1,030 of them (5.7%) were called active. 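Inactive calls also include pools with fewer than 3300 nuclei, whose migration was not assessed.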 The raw values are shown without normalisation. Unmarked entries are inactive. Further read-outs or replicates are left out here."}
{"gene symbol": "LGALS9 (galectin 9)", "PubChem SID": "SID255350752", "migration robust z-score": 0.39, "migration class with cell-count check": "migration z between -2 and 2; enough cells", "nuclei per well, duplicate mean": 4818}
{"gene symbol": "MMEL1 (membrane metalloendopeptidase like 1)", "PubChem SID": "SID255360266", "migration robust z-score": 1.48, "migration class with cell-count check": "migration z between -2 and 2; enough cells", "nuclei per well, duplicate mean": 5782}
{"gene symbol": "ZNF483 (zinc finger protein 483)", "PubChem SID": "SID255363660", "migration robust z-score": -0.21, "migration class with cell-count check": "migration z between -2 and 2; enough cells", "nuclei per well, duplicate mean": 4426}
{"gene symbol": "PRDM2 (PR/SET domain 2)", "PubChem SID": "SID255353300", "migration robust z-score": -0.16, "migration class with cell-count check": "migration z between -2 and 2; enough cells", "nuclei per well, duplicate mean": 5102}
{"gene symbol": "METTL15 (methyltransferase 15, mitochondrial 12S rRNA N4-cytidine)", "PubChem SID": "SID255363955", "migration robust z-score": -1.26, "migration class with cell-count check": "migration z between -2 and 2; enough cells", "nuclei per well, duplicate mean": 5744}
{"gene symbol": "NSG2 (neuronal vesicle trafficking associated 2)", "PubChem SID": "SID255357815", "migration robust z-score": 0.09, "migration class with cell-count check": "migration z between -2 and 2; enough cells", "nuclei per well, duplicate mean": 5518}
{"gene symbol": "TCEAL1 (transcription elongation factor A like 1)", "PubChem SID": "SID255354201", "migration robust z-score": 0.75, "migration class with cell-count check": "migration z between -2 and 2; enough cells", "nuclei per well, duplicate mean": 4634}
{"gene symbol": "KCNN3 (potassium calcium-activated channel subfamily N member 3)", "PubChem SID": "SID255350628", "migration robust z-score": -1.34, "migration class with cell-count check": "migration z between -2 and 2; enough cells", "nuclei per well, duplicate mean": 4989}
{"gene symbol": "CARM1 (coactivator associated arginine methyltransferase 1)", "PubChem SID": "SID255355132", "migration robust z-score": -0.68, "migration class with cell-count check": "migration z between -2 and 2; enough cells", "nuclei per well, duplicate mean": 5083}
{"gene symbol": "CDH1 (cadherin 1)", "PubChem SID": "SID255348820", "migration robust z-score": 0, "migration class with cell-count check": "migration z between -2 and 2; enough cells", "nuclei per well, duplicate mean": 5846}
{"gene symbol": "C2orf42 (chromosome 2 open reading frame 42)", "PubChem SID": "SID255358323", "migration robust z-score": 0.82, "migration class with cell-count check": "migration z between -2 and 2; enough cells", "nuclei per well, duplicate mean": 7144}
{"gene symbol": "ACSM2B (acyl-CoA synthetase medium chain family member 2B)", "PubChem SID": "SID255365242", "migration robust z-score": -0.52, "migration class with cell-count check": "migration z between -2 and 2; enough cells", "nuclei per well, duplicate mean": 6536}
{"gene symbol": "MYBPC1 (myosin binding protein C1)", "PubChem SID": "SID255351085", "migration robust z-score": 0.3, "migration class with cell-count check": "migration z between -2 and 2; enough cells", "nuclei per well, duplicate mean": 5900}
{"gene symbol": "LTV1 (LTV1 ribosome biogenesis factor)", "PubChem SID": "SID255361600", "migration robust z-score": -1.91, "migration class with cell-count check": "migration z between -2 and 2; enough cells", "nuclei per well, duplicate mean": 5865}
{"gene symbol": "FASTKD1 (FASTK mitochondrial RNA regulator 1)", "PubChem SID": "SID255360380", "migration robust z-score": -1.86, "migration class with cell-count check": "migration z between -2 and 2; enough cells", "nuclei per well, duplicate mean": 7130}
{"gene symbol": "SPRTN (SprT-like N-terminal domain)", "PubChem SID": "SID255361136", "migration robust z-score": 1.25, "migration class with cell-count check": "migration z between -2 and 2; enough cells", "nuclei per well, duplicate mean": 7276}
{"gene symbol": "SCCPDH (saccharopine dehydrogenase (putative))", "PubChem SID": "SID255357472", "migration robust z-score": 0.88, "migration class with cell-count check": "migration z between -2 and 2; enough cells", "nuclei per well, duplicate mean": 5686}
{"gene symbol": "EIF5A2 (eukaryotic translation initiation factor 5A2)", "PubChem SID": "SID255359099", "migration robust z-score": -0.76, "migration class with cell-count check": "migration z between -2 and 2; enough cells", "nuclei per well, duplicate mean": 5262}
{"gene symbol": "KLF11 (KLF transcription factor 11)", "PubChem SID": "SID255353571", "migration robust z-score": 1.25, "migration class with cell-count check": "migration z between -2 and 2; enough cells", "nuclei per well, duplicate mean": 4263}
{"gene symbol": "TLNRD1 (talin rod domain containing 1)", "PubChem SID": "SID255359675", "migration robust z-score": "3.02 (active)", "migration class with cell-count check": "migration z above 2; enough cells", "nuclei per well, duplicate mean": 7232}
{"gene symbol": "SCEL (sciellin)", "PubChem SID": "SID255353818", "migration robust z-score": -0.08, "migration class with cell-count check": "migration z between -2 and 2; enough cells", "nuclei per well, duplicate mean": 6253}
{"gene symbol": "REEP3 (receptor accessory protein 3)", "PubChem SID": "SID255364264", "migration robust z-score": -1.42, "migration class with cell-count check": "migration z between -2 and 2; enough cells", "nuclei per well, duplicate mean": 4874}
{"gene symbol": "MAPK12 (mitogen-activated protein kinase 12)", "PubChem SID": "SID255352283", "migration robust z-score": 0.13, "migration class with cell-count check": "migration z between -2 and 2; enough cells", "nuclei per well, duplicate mean": 5365}
{"gene symbol": "ADCK1 (aarF domain containing kinase 1)", "PubChem SID": "SID255359296", "migration robust z-score": "-4.08 (active)", "migration class with cell-count check": "migration z below -2; enough cells", "nuclei per well, duplicate mean": 3927}
{"gene symbol": "BBS4 (Bardet-Biedl syndrome 4)", "PubChem SID": "SID255348511", "migration robust z-score": 0.07, "migration class with cell-count check": "migration z between -2 and 2; enough cells", "nuclei per well, duplicate mean": 5098}
{"gene symbol": "SMUG1", "PubChem SID": "SID255356344", "migration robust z-score": -0.7, "migration class with cell-count check": "migration z between -2 and 2; enough cells", "nuclei per well, duplicate mean": 5736}
{"gene symbol": "PPP1R13B (protein phosphatase 1 regulatory subunit 13B)", "PubChem SID": "SID255356190", "migration robust z-score": -0.08, "migration class with cell-count check": "migration z between -2 and 2; enough cells", "nuclei per well, duplicate mean": 6043}

Targets above whose target name begins with M or m:
{"gene symbol": "MMEL1 (membrane metalloendopeptidase like 1)", "PubChem SID": "SID255360266", "migration robust z-score": 1.48, "migration class with cell-count check": "migration z between -2 and 2; enough cells", "nuclei per well, duplicate mean": 5782}
{"gene symbol": "METTL15 (methyltransferase 15, mitochondrial 12S rRNA N4-cytidine)", "PubChem SID": "SID255363955", "migration robust z-score": -1.26, "migration class with cell-count check": "migration z between -2 and 2; enough cells", "nuclei per well, duplicate mean": 5744}
{"gene symbol": "MYBPC1 (myosin binding protein C1)", "PubChem SID": "SID255351085", "migration robust z-score": 0.3, "migration class with cell-count check": "migration z between -2 and 2; enough cells", "nuclei per well, duplicate mean": 5900}
{"gene symbol": "MAPK12 (mitogen-activated protein kinase 12)", "PubChem SID": "SID255352283", "migration robust z-score": 0.13, "migration class with cell-count check": "migration z between -2 and 2; enough cells", "nuclei per well, duplicate mean": 5365}
